## Results of single-concentration screens

From ChEMBL document CHEMBL3988442, “University of Dundee, Small-Polar-MMV Screening Library” (2021).

Mtb cholesterol medium: 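Growth of Mycobacterium tuberculosis over 4 days (cholesterol / DPPC medium with tyloxapol); the read-out is not stated. Concentration: 50 µM. Direction is inferred from retests: higher values go with more growth inhibition. Size under these conditions: about 69,000 compounds, about 370 of them at 50% or above in at least one test.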
Mtb glucose medium: 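Growth of Mycobacterium tuberculosis over 3 days (7H9 medium with glucose and tyloxapol); the read-out is not stated. Tested at 50 µM. The record gives no direction; compounds that gave an IC50 in retests scored well above the rest, so higher reads as more growth inhibition. Size under these conditions: about 69,000 compounds, about 760 of them at 50% or above in at least one test.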

Values are the deposited “Percent Effect”, in %.
The record does not define 0% and 100%; most values in the screen are far below 50% and negative numbers occur (in some assays of this library far below -100).
Compounds were drawn at random from those tested, without regard to their results.
Two or more numbers in one place are separate tests of the same structure; such repeats can differ widely.

O=C(O)C(F)(F)F.O=C(O)C(F)(F)F.O=C(O)C(F)(F)F.[H][C@@]12CN(Cc3ccncc3)C[C@]1([H])[C@@H](OC)CCN2C1CCC1 gave Mtb cholesterol medium: -3.579%; Mtb glucose medium: -23.61% and -6.775%. For CN(C)c1ncc(CNC(=O)Nc2ccccc2F)n1C the result was Mtb cholesterol medium: -13.81%; Mtb glucose medium: -9.638%. O=C(O)C(F)(F)F.[H][C@]12CCCN(Cc3ccoc3)[C@@]1([H])CN(C(=O)c1ccco1)C2 read Mtb cholesterol medium: -15.06%; Mtb glucose medium: -14.13%. O=C(O)C(F)(F)F.O=C(O)C(F)(F)F.O=C(c1ccncc1)N1CCC2(CC1)CCN(Cc1ccccn1)C2=O read Mtb cholesterol medium: -0.2926%; Mtb glucose medium: 4.343%. Cc1nnsc1-c1nnc2sc(C(C)C)nn12 read Mtb cholesterol medium: -7.759%; Mtb glucose medium: -7.572% and 2.511%. CSCC1CCN(C(=O)c2ccccc2NCc2cccnc2)C1 (stereo not drawn) read Mtb cholesterol medium: -7.764%; Mtb glucose medium: 11.24%.

With COc1ccc(OCc2nc3cc4c(cc3c(=O)o2)OCCCO4)cc1 the screen gave Mtb cholesterol medium: -22.59%; Mtb glucose medium: 2.062% and -0.7821%. With O=C(c1cc2c(s1)CCC2)N1CCN(c2cnccn2)CC1 the screen gave Mtb cholesterol medium: 0.2332% and -7.977%; Mtb glucose medium: 13.46%. With CCC1CCC(N(Cc2cc(=O)n(C)c(=O)n2C)C2CC2)CC1 (stereo not drawn) the screen gave Mtb cholesterol medium: 13.24%; Mtb glucose medium: 14.75%. Cc1cc(C)n(CC2CCCN2C(=O)c2ccc3c(c2)OCO3)n1 (stereo not drawn) gave Mtb cholesterol medium: -9.353%; Mtb glucose medium: 0.6345%. Result for CC(c1nc(C2CC2)no1)N1CCN(CCn2ccccc2=O)CC1 (stereo not drawn) was Mtb cholesterol medium: -2.934%; Mtb glucose medium: -1.763%. For N#Cc1ccc(N2CCC(NS(=O)(=O)c3cccs3)CC2)c(F)c1 the result was Mtb cholesterol medium: -15.6%; Mtb glucose medium: -21.09%.

CC(C)(C)CN1CCC(c2nccnc2Nc2cnccn2)CC1 gave Mtb cholesterol medium: 7.106%; Mtb glucose medium: 4.521%. O=C(NCC(F)F)c1ccc(S(=O)(=O)NCCc2c[nH]cn2)cc1 gave Mtb cholesterol medium: 3.592%; Mtb glucose medium: -31.57%. For N#Cc1cccnc1NCc1ccc(S(=O)(=O)NCC2CCCO2)cc1 (stereo not drawn) the result was Mtb cholesterol medium: -31.2%; Mtb glucose medium: -23.78%. With CN(C)C(=O)CN1CCCC2(CCN(c3ccc(C#N)cn3)C2)C1.O=C(O)C(F)(F)F (stereo not drawn) the screen gave Mtb cholesterol medium: -23.34%; Mtb glucose medium: -33.32%. Result for O=C(O)C(F)(F)F.O=C(O)C(F)(F)F.[H][C@@]12COC[C@]1(CNC(=O)c1ccno1)CN(Cc1cccc(C)n1)C2 was Mtb cholesterol medium: -19.01%; Mtb glucose medium: -15.42%. With Cl.NCc1ccc(OC(F)F)cc1OC(F)F the screen gave Mtb cholesterol medium: 10.81%; Mtb glucose medium: -6.247%.

Result for O=C(Nc1ccc2c(ccn2CCN2CCOCC2)c1)c1ccncc1 was Mtb cholesterol medium: 3.889%; Mtb glucose medium: -4.873%. [H][C@@]12CCN(C(C)=O)C[C@@]1([H])[C@H](C(=O)N1CCCCO1)CCO2 read Mtb cholesterol medium: 2.468%; Mtb glucose medium: -0.6791%. Result for O=C(NC1(C(=O)NC2CCCC2)CCCC1)c1ccc2[nH]ncc2c1 was Mtb cholesterol medium: 6.846%; Mtb glucose medium: 7.106%. [H][C@]12CN(C)CCN1C(=O)N(C1CCCCC1)C2 gave Mtb cholesterol medium: -25.17%; Mtb glucose medium: 0.8899% and -6.875%. Result for [H][C@]12CC[C@]([H])(CN(C(=O)CCn3cc(Cl)cn3)C1)N(Cc1ccccn1)C2 was Mtb cholesterol medium: -2.222%; Mtb glucose medium: 21.47%. Cc1cc(C)n(CC(C)CNC(=O)CCc2ccco2)n1 (stereo not drawn) read Mtb cholesterol medium: -21.41%; Mtb glucose medium: -0.9985%.

COc1ccc(Cl)cc1-c1nc(N)nc(N(C)C)n1 gave Mtb cholesterol medium: 15.21%; Mtb glucose medium: 1.996% and 32.25%.

Some entries from above, unchanged:

SMILES,Mtb cholesterol medium,Mtb glucose medium
CC(C)(C)CN1CCC(c2nccnc2Nc2cnccn2)CC1,7.106%,4.521%
CSCC1CCN(C(=O)c2ccccc2NCc2cccnc2)C1 (stereo not drawn),-7.764%,11.24%